# The campaign covered roughly 320,000 compounds. About 2,100 (0.66%) were called active. The inconclusive results got no clear call from the source; some entries with a clear call stand among them for comparison. Calls follow the shape of the dose curve; as a rule, active = well fitted inhibition curve with a large enough effect in the signal ratio, with a control signal flat (not every such curve was filed as active); inconclusive = small, poorly fitted or top-dose-only effect, or effect the other way, or a change in a side signal; inactive = flat fitted curve, though single readings scatter; the % refers to the signal ratio. Potencies beside an inconclusive call are fits to weak or partial responses and may not hold up.
# Assay: qHTS Assay for Lipid Storage Modulators in Drosophila S3 Cells
# Conditions: BODIPY lipid droplet fluorescence, 18-24 h, cells fed with added oleic acid; lipid storage change, negative = inhibition: at 46.1 µM (top of the series) unless noted
# Outline: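 Drosophila S3 cells loaded with oleic acid (400 uM, as added) and compounds at several concentrations; lipid droplets imaged by 488-nm laser-scanning cytometry, 500–530 nm intensity and object ratio to cell channel. Percent activity normalized to 20 uM Triacsin C.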
# % is scaled to controls: 0 for no effect and ±100 for the full control effect; potency is read from the fitted curve at half-maximal effect.
Compound,"lipid storage change, negative = inhibition",Potency,outcome
C=CCC(C(=O)c1ccccc1)[N+](C)(C)CC=C (centres undefined),inconclusive: -22.9%,–,–
CCCOC(=O)c1ccc(NC(=O)Oc2ccccc2)cc1,–,"inconclusive: 16.4 µM [falling, partial curve, poor fit]",–
Cc1cc(C)cc(OCc2nnc(SCC(=O)OC3CCCCC3)o2)c1,–,"inconclusive: 16.4 µM [falling, single point]",–
Cc1cc(C)c2nc3s/c(=C/c4ccc5c(c4)n(C)c(=O)n5C)c(=O)n3c2c1,inconclusive: -40.6%,–,–
O=C(CNC(=O)c1ccccc1)OCc1cccc(Br)c1,inactive: -23.1%,–,–
COc1ccc(CCNC(=O)Cn2nnc(C(=O)Nc3cccc(C)c3C)c2N)cc1OC,–,"inconclusive: 32.6 µM [activator, single point]",–
CCC1CCCCN1S(=O)(=O)c1c(C)n(C)c(=O)n(C)c1=O (centres undefined),inconclusive: -3.98%,–,–
O=C(Cc1ccc(Cl)c(Cl)c1)Nc1ccc(S(=O)(=O)Nc2ncccn2)cc1,–,–,inactive [at 46.1 µM]
O=C(NCCCNc1ccnc2cc(Cl)ccc12)c1ccccc1F,–,"inconclusive: 23.1 µM [activator, single point]",–
Cc1ccc(NC(=O)CSc2nnc(CNC(=O)c3ccco3)o2)cc1Cl,–,"inconclusive: 6.51 µM [activator, single point]",–
CCCCP(=O)(c1ccccn1)c1ccccn1,inconclusive: 5.4%,–,–
COc1ccc(/C=N/NC(=O)CN(CCc2ccccc2)S(=O)(=O)c2ccc(NC(C)=O)cc2)cc1OC,–,"inconclusive: 1.46 µM [activator, full curve]",–
C/C(=N\Nc1ccc(C(=O)O)cc1)c1ccc(Br)cc1,inconclusive: 7.49%,–,–
CNc1cc(Cl)nc(SC)n1,inconclusive: -5.47%,–,–
C/C(N)=C(/C#N)C(=O)COC(=O)CCSc1ccccc1Cl,inconclusive: 59.8%,–,–
O=C(O)C1C2C=CC(C2)C1C(=O)NC1CCS(=O)(=O)C1 (centres undefined),–,"inconclusive: 20.6 µM [activator, single point]",–
CC(=O)C1=C(C)NC(SCC(=O)c2ccc(Cl)cc2)=C(C#N)C1c1ccco1 (centres undefined),inconclusive: 77.5%,–,–
COc1ccc(-c2cc(C(F)(F)F)n3ncc(C(=O)N4CCc5ccccc5C4)c3n2)cc1,inconclusive: -27.8%,–,–
Cc1[nH]ccc2c1[nH]c1cc(=O)ccc12,inconclusive: -41.8%,–,–
Cc1cccc(C)c1NC(=O)CS(=O)CC(=O)Nc1ccc(N2CCOCC2)cc1 (centres undefined),inconclusive: 64.9%,–,–
Cc1nc(NC(=O)CCCC(=O)Nc2nc(C)c(C)s2)sc1C,–,"inconclusive: 32.6 µM [falling, single point]",–
COC(=O)c1c(C)[nH]c(C(=O)COC(=O)Cn2cc(C(F)(F)F)ccc2=O)c1C,inconclusive,–,–
CCOc1ccccc1N1CCN(C(=O)CNC(=O)c2ccc(OC)c(OC)c2)CC1,–,"inconclusive: 29.1 µM [falling, single point]",–
CCOCCN(C=O)c1cccc(OC)c1,inconclusive: -65.3%,–,–
O=C(CN1CCCCC1)Nc1ccc(S(=O)(=O)NC2CCCCC2)cc1,inconclusive: 43.3%,–,–

# Not a retest: two of the compounds above.
Compound,"lipid storage change, negative = inhibition",Potency,outcome
CC(=O)C1=C(C)NC(SCC(=O)c2ccc(Cl)cc2)=C(C#N)C1c1ccco1 (centres undefined),inconclusive: 77.5%,–,–
COc1ccc(-c2cc(C(F)(F)F)n3ncc(C(=O)N4CCc5ccccc5C4)c3n2)cc1,inconclusive: -27.8%,–,–

# Next records follow:

Compound,"lipid storage change, negative = inhibition",Potency,outcome
COc1ccc(NC(=O)CCN=C2NS(=O)(=O)c3ccccc32)cc1S(=O)(=O)N(C)C,inconclusive: 4.42%,–,–
O=C(O)c1cccc(NC(=O)c2ccccc2NC(=O)c2cccc([N+](=O)[O-])c2)c1,–,"inconclusive: 18.4 µM [activator, single point]",–
CCCn1cc(SCC(=O)Nc2ccc3c(c2)OCO3)c2ccccc21,–,"inconclusive: 2.06 µM [rising, partial curve, poor fit]",–
S=C(NCCc1ccccc1)Nc1ccc(Br)cn1,inconclusive: -69.7% [cytotoxic] [at 0.00295 µM],–,–
CC(C)Cc1nnc(NC(=O)CCC(=O)N2CCN(Cc3ccc(Cl)cc3)CC2)s1,–,"inconclusive: 1.16 µM [activator, partial curve]",–
Cc1c(NC(=O)/C(C#N)=C/c2cccs2)c(=O)n(-c2ccccc2)n1C,inconclusive: 2.81%,–,–
Nc1n[nH]c(-c2ccc(F)cc2)n1,–,"inconclusive: 2.59 µM [activator, partial curve]",–
CCCC(=O)Nc1nnc(SCC(=O)NCc2cccs2)s1,inconclusive: -11.5%,–,–
Cc1ccc(NC(=O)CSc2nn3c(=O)c(C)nnc3s2)cc1Cl,–,"inconclusive: 29.1 µM [falling, single point]",–
COc1cccc(NC(=O)CSc2nc3ccccc3c3nc4ccccc4n23)c1,–,"inconclusive: 0.651 µM [activator, partial curve]",–
Cc1ccc2[nH]c(=O)c(CN(CCCN(C)C)C(=S)NCCc3ccccc3)cc2c1,inactive: -2.53%,–,–
CCOC(=O)c1c(C)n(-c2ccc(C)cc2)c2ccc(OCC(O)CN3CCN(C)CC3)cc12 (centres undefined),inconclusive: 0.46%,–,–
COc1cccc(NC(=S)N(Cc2ccco2)C(C)c2ccco2)c1 (centres undefined),inconclusive: 10.2%,–,–
CC(=O)Nc1ccc(NC2=CC(=O)CC(C)(C)C2)cc1,–,–,inactive [at 46.1 µM]
Cc1ccc(Cn2cccc2/C=C2/C(=N)N3C=CSC3=NC2=O)cc1,inconclusive: -29.2%,–,–
Cc1cccc(CCN2C(Nc3ccccc3)=NC[C@@H]2C)c1,inconclusive: -81.2%,–,–
CC(=O)c1ccc(NC(=S)NCCc2cccc(Cl)c2)cc1,–,"inconclusive: 29.1 µM [falling, single point]",–
COc1ccccc1CNC(=O)c1cc(-c2ccccc2C)n(CC2CC(c3cccc([N+](=O)[O-])c3)=NO2)n1 (centres undefined),inconclusive: -57.8%,–,–
CC(C)C(=O)N(Cc1ccc2c(c1)OCO2)Cc1ccccn1,inconclusive: 34%,–,–
CN(C)CCCN(C(=O)c1ccc(S(=O)(=O)N2CCc3ccccc32)cc1)c1nc2ccc(Cl)cc2s1,–,"inconclusive: 25.9 µM [activator, single point]",–
CC(=O)N1CCC(C(=O)NC2CC(C)(C)Cc3c2cnn3-c2ccc(F)cc2)CC1 (centres undefined),inconclusive: 12.6%,–,–
CCOc1cccc2sc(N(CCN(CC)CC)C(=O)c3cccc(N4C(=O)CCC4=O)c3)nc12,inconclusive: 2.97%,–,–
Cc1c(C(=O)O)c(C(=O)O)nc2ccc(N3CCOCC3)cc12,–,"inconclusive: 0.164 µM [falling, full curve, poor fit]",–
COc1ccccc1C(CNC(=O)C1CC(=O)N(Cc2ccc(C)cc2)C1)N1CCCC1 (centres undefined),inconclusive: 17.8%,–,–
CCc1nnc(SCC(=O)Nc2ccc(N3CCN(S(C)(=O)=O)CC3)cc2)o1,–,"inconclusive: 29.1 µM [activator, single point]",–

# One compound at a time, as listed above:
# Cc1cc(C)c2nc3s/c(=C/c4ccc5c(c4)n(C)c(=O)n5C)c(=O)n3c2c1 as listed: lipid storage change, negative = inhibition: inconclusive: -40.6%
# CCOCCN(C=O)c1cccc(OC)c1 as listed: lipid storage change, negative = inhibition: inconclusive: -65.3%
# CCOC(=O)c1c(C)n(-c2ccc(C)cc2)c2ccc(OCC(O)CN3CCN(C)CC3)cc12 (centres undefined) as listed: lipid storage change, negative = inhibition: inconclusive: 0.46%
# CCOc1ccccc1N1CCN(C(=O)CNC(=O)c2ccc(OC)c(OC)c2)CC1 as listed: Potency: inconclusive: 29.1 µM [falling, single point]

# The list goes on:

Compound,"lipid storage change, negative = inhibition",Potency,outcome
O=C(NCCc1cccc(F)c1)C1CCCN(c2nc3ccccc3s2)C1 (centres undefined),inconclusive: -178%,–,–
Cc1nnsc1-c1nnc(SCC(=O)c2ccc(F)cc2)n1C1CC1,inconclusive: 10.6%,–,–
CCCCn1c(N)c(N(Cc2ccccc2OC)C(=O)c2cc(CC)c(C)s2)c(=O)[nH]c1=O,inconclusive: 9.06%,–,–
CCCCN(CC)S(=O)(=O)c1ccc(C(=O)Nc2nnc(-c3cccs3)o2)cc1,inconclusive: -7.56%,–,–
COc1ccccc1CNC(=O)C1CCCC1,–,"inconclusive: 29.1 µM [activator, single point]",–
CC(=O)NS(=O)(=O)c1ccc(NC(=O)CC(C)c2ccccc2)cc1 (centres undefined),–,"inconclusive: 0.0052 µM [falling, full curve, poor fit]",–
O=C(O)c1cc(/C=C/c2ccc(N3CCOCC3)cc2)nc2ccccc12,inconclusive: -16.7%,–,–
O=C(CN1C(=O)CSc2cc(S(=O)(=O)N3CCCCCC3)ccc21)NCCc1ccccc1,inconclusive: -2.27%,–,–
Cc1ccc2nc(-c3ccc(-c4cccc(Cl)c4)cc3)c(NCc3ccccc3)n2c1,inconclusive: -88.9%,–,–
Cc1ccccc1C(CC(=O)c1cccs1)C(C#N)C#N (centres undefined),–,"inconclusive: 29.1 µM [falling, single point]",–
Cc1c(NC(=O)c2coc(=O)c(Br)c2)c(=O)n(-c2ccccc2)n1C,inconclusive: -2.58%,–,–
CCOC(=O)C1CCCN(C(=S)NC(=O)c2cc(Br)ccc2Cl)C1 (centres undefined),inconclusive: 57.7%,–,–
CCOC(=O)CC1COCCN1C(=O)c1cc(COc2ccc(F)cc2Cl)on1 (centres undefined),–,"inconclusive: 29.1 µM [falling, single point]",–
COCCNC(=O)/C(C#N)=C/C=C/c1ccccc1,inconclusive: 12.5%,–,–
O=C(NCc1ccccc1)C1CCCN(S(=O)(=O)c2ccc(F)cc2)C1 (centres undefined),–,"inconclusive: 0.0046 µM [activator, full curve, poor fit]",–
COc1cccc(-c2c(C(=O)N/N=C/c3sccc3C)nnn2-c2nonc2N)c1,inconclusive: -39.1%,–,–
COc1ccc(/C=C2\CCCc3c2nc2ccccc2c3C(=O)OCC(=O)c2c(N)n(C)c(=O)n(C)c2=O)cc1,inconclusive: 25.4%,–,–
O=C(NCc1ccccn1)c1cc(-c2ccc(Cl)cc2)oc1C(F)(F)F,inconclusive: 24.3%,–,–
Cc1cccc(C)c1NC(=O)CNC(=O)CNC(=O)Cc1cccc2ccccc12,inconclusive: 5.49%,–,–
CCCn1c2ccccc2c2nnc(SCCN3CCOCC3)nc21,–,"inconclusive: 29.1 µM [falling, single point]",–
CO/N=C\CC(=O)Nc1ccc(Oc2ccccc2)cc1,inconclusive: 15.6%,–,–
COc1ccccc1/C=C/C(=O)OCC(=O)Nc1nnc(-c2ccccc2)o1,inconclusive,–,–
O=C(Nc1nnc(S(=O)(=O)N2CCOCC2)s1)c1cccc(Br)c1,–,"inconclusive: 18.4 µM [falling, partial curve, poor fit]",–
CCCCc1cc(=O)oc2cc(C)cc(OC(C)C(=O)NCc3ccccn3)c12 (centres undefined),inconclusive: 13.8%,–,–
